Reference: patent US20070149408A1, “METHOD FOR REDUCING NITROSAMINES IN TOBACCO” (UNIVERSITY OF KENTUCKY RESEARCH FOUNDATION, priority 2005, published 2007)

Test system: whole tobacco leaf
Assay: Total TSNA in cured tobacco, ferulic acid solution sprayed one day after harvesting (Example 1)
Conditions: 0.25% wt. by volume ferulic acid, no surfactant, 100 ml per stalk
Protocol: Two samples of whole tobacco leaves still on the stalk were cured in a bulk barn. One sample was treated with ferulic acid by spraying an aqueous solution comprising 0.25% wt. by volume of ferulic acid onto the harvested tobacco plant, one day after harvesting. The amount of solution applied to each stalk of leaves was 100 ml. The other sample was untreated tobacco of the same variety as the treated tobacco and harvested at the same time as the treated tobacco.
Both the treated and untreated samples were hung in the same bulk barn to cure. The curing process comprised two weeks of circulating air throughout the bulk barn followed by three weeks of wood fire curing.
After curing, whole tobacco leaves were randomly removed from the stalk and subject to testing to determine the content of nitrosamines. The nitrosamines that were measured were N-nitrosonornicotine (NNN), N-nitrosoanatabine (NAT), N-nitrosoanabasine (NAB), and 4-methyl-N-nitrosamine-1-(3-pyridyl)-1-butanone (NNK). The total content of NNN, NAT, NAB, and NNK make up the total N-nitrosamine (TSNA) content. The methodology employed was a chromatographic method described by Risner, Reece and Morgan, Recent Advances in Tobacco Science 27:47 (2001).

## COc1cc(C=CC(=O)O)ccc1O [ferulic acid, 4-hydroxy-3-methoxy cinnamic acid]
Lower leaves, untreated 2.43
  Total TSNA (dwb), Lug: 1.84 ppm
Middle leaves, untreated 1.60
  Total TSNA (dwb), Second: 1.37 ppm
Top leaves, untreated 2.16
  Total TSNA (dwb), Leaf: 1.64 ppm
Untreated 2.14
  Total TSNA (dwb), Avg.: 1.59 ppm
